# Taken from: PubChem BioAssay AID1259308 (NCATS, 2017)
# Aim: 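Genes whose loss raises luciferase production in HEK293 cells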 (primary screen)
# Cells: human HEK293 embryonic kidney cells stably expressing firefly luciferase (HEK-CMV-Luc2-Hygro)
# Reagent: single siRNA against human genes, 0.8 pmol siRNA per well
# Duration: 72 h
# Measured: 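Reporter luminescence and viable-cell signal on separate replicate plates, given as percent of non-targeting control and median/MAD z-scores, plus per-cell luciferase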
# Reading the numbers: total luciferase, z-score and total luciferase, % of control: higher = more reporter protein produced; luciferase per cell, z-score: higher = more reporter output per viable cell; viable cells, % of control: higher = more viable cells
# Hit rule: 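An siRNA counts as active if its total luciferase robust z-score exceeds 3; genes with two or more such siRNAs out of three were retested with fresh siRNAs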
# Calls: active = raised luciferase; inactive = no rise
# This is one part, drawn at random, of about 59,000 reagents. About 1,510 of all reagents (2.6%) were called active. 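Calls use total luciferase alone and ignore viability, so some active siRNAs may act by altering cell number.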 Unmarked entries are inactive. The numbers tell different reagents against one gene apart.
gene symbol,reagent,"total luciferase, z-score","total luciferase, % of control","luciferase per cell, z-score","viable cells, % of control"
CDNF (cerebral dopamine neurotrophic factor),1,0.613,94.1,0.512,91.9
CDNF (cerebral dopamine neurotrophic factor),2,-0.59,70.1,0.0534,77.3
CDNF (cerebral dopamine neurotrophic factor),3,0.0659,83.2,-0.465,105
CCNG2 (cyclin G2),1,-0.362,74.7,-0.612,98
CCNG2 (cyclin G2),2,0.408,90,0.434,89.7
CCNG2 (cyclin G2),3,-2.09,40.4,-1.85,73.4
ADAP1 (ArfGAP with dual PH domains 1),1,1.6,114,1.12,94.6
ADAP1 (ArfGAP with dual PH domains 1),2,-1.57,50.6,-0.72,68.3
ADAP1 (ArfGAP with dual PH domains 1),3,-0.274,76.4,0.393,77
SHC3 (SHC adaptor protein 3),1,-2.44,33.4,-1.92,61.8
SHC3 (SHC adaptor protein 3),2,-0.439,73.2,-0.32,88.9
SHC3 (SHC adaptor protein 3),3,1.68,115,3.27,54.5

3 entries from above, reformatted:
CCNG2 (cyclin G2) #3 → total luciferase, z-score: -2.09; total luciferase, % of control: 40.4; luciferase per cell, z-score: -1.85; viable cells, % of control: 73.4
ADAP1 (ArfGAP with dual PH domains 1) #1 → total luciferase, z-score: 1.6; total luciferase, % of control: 114; luciferase per cell, z-score: 1.12; viable cells, % of control: 94.6
ADAP1 (ArfGAP with dual PH domains 1) #2 → total luciferase, z-score: -1.57; total luciferase, % of control: 50.6; luciferase per cell, z-score: -0.72; viable cells, % of control: 68.3

More reagents:
gene symbol,reagent,"total luciferase, z-score","total luciferase, % of control","luciferase per cell, z-score","viable cells, % of control"
MAD1L1 (mitotic arrest deficient 1 like 1),1,-1.09,60.3,-0.523,77.3
MAD1L1 (mitotic arrest deficient 1 like 1),2,-1.47,52.6,-0.366,64.7
MAD1L1 (mitotic arrest deficient 1 like 1),3,0.411,90.1,0.817,81.2
RNF151 (ring finger protein 151),1,1.17,105,0.618,99.8
RNF151 (ring finger protein 151),2,-0.366,74.6,-1.34,119
RNF151 (ring finger protein 151),3,2.44,130,1.6,95.5
TFF1 (trefoil factor 1),1,-2.58,30.5,-2.05,58.4
TFF1 (trefoil factor 1),2,0.826,98.3,0.44,97.9
TFF1 (trefoil factor 1),3,0.294,87.7,0.0937,95.6
OR10J1 (olfactory receptor family 10 subfamily J member 1),1,0.546,92.8,-0.0515,105
OR10J1 (olfactory receptor family 10 subfamily J member 1),2,-0.929,63.4,-0.401,78.8
OR10J1 (olfactory receptor family 10 subfamily J member 1),3,-0.397,74,-0.946,106
